According to publication PMC9787417 (Pathogens, 2022):
No constants are given. Whether binding was seen depends on the method and setting. For part of these data: In cells and extracts the contact can be indirect. Some binding calls cover weakened binding; strength is not graded here.

Protein sequences, listed by entry. Tags and fused reporters are not part of them. Residues count along the entry.
UniProt Q9I788, residues 235-457: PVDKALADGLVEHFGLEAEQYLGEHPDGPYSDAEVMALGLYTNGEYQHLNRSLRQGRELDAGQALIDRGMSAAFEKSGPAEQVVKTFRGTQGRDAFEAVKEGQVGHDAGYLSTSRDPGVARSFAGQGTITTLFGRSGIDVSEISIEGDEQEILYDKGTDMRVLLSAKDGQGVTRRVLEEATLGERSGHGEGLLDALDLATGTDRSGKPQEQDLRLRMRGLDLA
UniProt Q93Q17, residues 252-475: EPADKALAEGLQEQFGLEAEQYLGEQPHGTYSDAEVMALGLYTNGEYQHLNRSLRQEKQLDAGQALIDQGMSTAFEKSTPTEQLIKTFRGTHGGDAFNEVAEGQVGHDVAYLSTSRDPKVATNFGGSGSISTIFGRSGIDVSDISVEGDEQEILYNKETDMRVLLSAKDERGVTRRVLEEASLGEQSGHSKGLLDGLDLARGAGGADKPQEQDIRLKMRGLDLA
UniProt P31946, residues 1-239: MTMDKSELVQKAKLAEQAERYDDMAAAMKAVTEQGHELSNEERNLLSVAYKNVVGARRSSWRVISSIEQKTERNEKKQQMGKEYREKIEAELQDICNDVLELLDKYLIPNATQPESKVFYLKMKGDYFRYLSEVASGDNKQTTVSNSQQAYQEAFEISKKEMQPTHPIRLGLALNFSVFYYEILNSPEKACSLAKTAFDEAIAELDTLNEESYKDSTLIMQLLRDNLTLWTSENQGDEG

Tests used:
[1] = target: ART domain of Pseudomonas aeruginosa exoenzyme T (ExoT-ART; residues 235-457) (Pseudomonas aeruginosa) (UniProt Q9I788); test: pull-down
[2] = target: ART domain of Aeromonas salmonicida exoenzyme T (AexT-ART; residues 252-475) (Aeromonas salmonicida) (UniProt Q93Q17); test: pull-down
[3] = target: ART domain of Pseudomonas aeruginosa exoenzyme T (ExoT-ART; residues 235-457) (Pseudomonas aeruginosa) (UniProt Q9I788); test: SEC-MALS; both purified
[4] = target: ART domain of Aeromonas salmonicida exoenzyme T (AexT-ART; residues 252-475) (Aeromonas salmonicida) (UniProt Q93Q17); test: SEC-MALS; both purified
[5] = target: ART domain of Pseudomonas aeruginosa exoenzyme T (ExoT-ART; residues 235-457) (Pseudomonas aeruginosa) (UniProt Q9I788); test: mass photometry; both purified
[6] = target: ART domain of Aeromonas salmonicida exoenzyme T (AexT-ART; residues 252-475) (Aeromonas salmonicida) (UniProt Q93Q17); test: mass photometry; both purified

Measured: binding

human 14-3-3β, un-tagged, co-expressed with the exotoxin ART domains (from UniProt P31946 1-239)
binds: all assays above
